{"sequences": {"note": "Amino acid sequences for entries named in this document (tags omitted). Residues count along the entry.", "UniProt Q9M7B8, 2-542": "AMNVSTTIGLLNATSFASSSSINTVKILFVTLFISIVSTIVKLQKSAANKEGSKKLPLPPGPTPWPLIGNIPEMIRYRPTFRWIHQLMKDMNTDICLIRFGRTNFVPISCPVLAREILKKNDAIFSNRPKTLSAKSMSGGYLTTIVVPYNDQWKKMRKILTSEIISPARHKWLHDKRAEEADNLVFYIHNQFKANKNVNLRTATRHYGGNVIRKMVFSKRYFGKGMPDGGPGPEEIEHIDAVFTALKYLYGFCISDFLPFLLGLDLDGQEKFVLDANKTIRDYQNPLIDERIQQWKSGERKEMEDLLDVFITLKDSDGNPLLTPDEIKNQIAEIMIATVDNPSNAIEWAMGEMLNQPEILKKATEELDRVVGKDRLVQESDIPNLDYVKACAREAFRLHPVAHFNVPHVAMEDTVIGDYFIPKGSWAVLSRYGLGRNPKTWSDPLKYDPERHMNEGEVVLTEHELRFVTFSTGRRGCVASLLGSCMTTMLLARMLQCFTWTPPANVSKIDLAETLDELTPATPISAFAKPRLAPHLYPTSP"}, "source": "patent US20030166202A1", "about": "“P450 Monooxygenases of the cyp79 family” (priority 2000, published 2003)", "molecular_target": "CYP79D1 (Manihot esculenta, UniProt Q9M7B8)", "settings": "amino acid as substrate", "experimental": "Isolated, recombinant CYP79D1 is reconstituted and its catalytic activity determined in vitro using reaction mixtures with a total volume of 30 μl containing 2.5 pmol CYP79D1, 0.05 U NADPH P450-oxidoreductase (Benveniste et al, Biochem J 235: 365-373, 1986), 10.6 mM L-α-dioleyl phosphatidylcholine, 0.35 μCi [U-^14C]-L-amino acid (L-Val, L-Ile, L-Leu, L-Tyr or L-Phe; Amersham, Sweden), 1 mM NADPH, 0.1 M NaCl and 20 mM KPi pH 7.9. In assays containing ^14C-L-valine or ^14C-L-isoleucine, different amounts of unlabeled L- and D-amino acids (0-6 mM) are added. After incubation for 10 minutes at 30° C. the products formed are extracted into 60 μl ethyl acetate and separated on TLC sheets (Merck Kieselgel 60F254) using n-pentane/diethyl ether (50:50, v/v) or toluene/ethyl acetate (5:1, v/v) as eluents for aliphatic compounds and aromatic compounds, respectively. ^14C-labeled oximes are visualized and quantified using a STORM 840 phosphor imager (Molecular Dynamics, CA, USA). The activity of CYP79D1 is additionally measured in the presence of the inhibitors tetcyclasis, ABT and DPI under the same conditions as described above. […] After incubation for 30 minutes at 30° C. the cells are extracted with ethyl acetate and the products formed are analyzed as above. […]", "note": "Some entries share one result that the patent states for a list of compounds.", "data": [{"smiles": "N[C@@H](Cc1ccccc1)C(=O)O", "note": "[L-phenylalanine]", "values": [{"measurement": "metabolism relative to that observed with L-valine (detection level)", "result": "< 0.8", "unit": "%"}]}]}
